First the molecules themselves.
B1: tRNA (parent)
chain: GUUCCGUUGGCGUAAUGGUAACGCGUCUCCCUCCUAAGGAGAAGACUGCGGGUUCGAGUCCCGUACGGAACG

Variants at the floor of the assay are shown more often than the library holds them.

Variants of B1 are the subject of this series. The experiment in a line: yeast fitness relative to wild type (ratio to wild type); higher = fitter; tRNA-Arg(CCU), competitive growth, 37 C, YPD. A digest of the protocol: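 Variants of the tRNA-Arg(CCU) gene were chemically synthesised with a 3% per-site mutation rate across 69 sites and placed at the native genomic locus in Saccharomyces cerevisiae. Six parallel replicates of the pooled strains were competed in YPD at 37°C for 24 hours, and gene amplicons from the start and end populations were read by 100-nucleotide paired-end sequencing. Darwinian fitness relative to wild type was derived from changes in genotype frequencies. Genotypes required ≥ 100 starting reads, and estimates < 0.5 were set to 0.5.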
For C49G C60A A70U, the yeast fitness was at most 0.5.
In the case of U8C U13G C22U it was 0.529; in that of U19C A20G G23C G50A, at most 0.5.
In the case of U28A A43C G68C it was at most 0.5; in that of C29A C34G G58C, at most 0.5; in that of C5U U7A C49U C62A A69G A70G, at most 0.5.
Next, C11U A37G G58C C61U U64C: at most 0.5; G10A C22U C30U G56C: at most 0.5.
Consider A15G C29U A36U, for which the yeast fitness was at most 0.5.
In the case of U3C G41C G52C it was at most 0.5; in that of A14G G25A C46G C62G G68C, at most 0.5; in that of G41C G48C A69U, 0.558.
In the case of C34A G52A U54A A70C it was at most 0.5; in that of A15U C22G C31U A65C, at most 0.5.
Next, G17C C31A A65U: at most 0.5; A15C C46U G51A C66A: at most 0.5.
Turning to A14G A21U A43G U53C C55U, the yeast fitness is at most 0.5.
As to U35G G50A C55U A69C, the yeast fitness is at most 0.5.
In the case of C22A C29A it was 0.636.
With U8C G23C, the yeast fitness is 0.642.
Next, G6C U28G: 0.644; C33U A43U C49G G50C: at most 0.5; U35C C55U: at most 0.5.
For the variant U7G C27G U32C A36G U53A G56A C62A, the yeast fitness is at most 0.5.
Next, C24A C46U C61A: at most 0.5.
In the case of G17A C22G C33U, the yeast fitness is at most 0.5.
Next, A14G C24A A57U C60A G68C: at most 0.5; A15G A20C U54A: at most 0.5.
Next, C30G C33G C62U A70C: at most 0.5.
In the case of G17A C33A it was 0.53.
With C11G C66A, the yeast fitness was at most 0.5.
G10C C22A C55U: the yeast fitness is at most 0.5.
In the case of G18C C49U G58C C62G A69C it was at most 0.5; in that of G6C A14G A20C U54C U64A G67A, at most 0.5.
Next, G6A G12A A20G C22G U26A G48C G68U: at most 0.5; C4G C11A U26A: at most 0.5; U7A G18C C27G G38A G51C G58C: at most 0.5.
As to U13A U32G U47A U64A A65C G67A, the yeast fitness is at most 0.5.
Next, U8A U32G A36C U47G: at most 0.5; C4U G56A A70C: 0.754.
Next, G12A C33U C46G: at most 0.5; U3A A65G: 0.899.
As to A14G C22U A37U A65U, the yeast fitness is at most 0.5.
For G12A U28C C61G, the yeast fitness is at most 0.5.
In the case of C5G G23C C31U A37C A57G G67U it was at most 0.5; in that of U3A C29A G68C A70C, at most 0.5; in that of A15G U28A G39A G48A C61G C66G, at most 0.5.
In the case of G9C A14C A15U G23A C34A U54C A65G it was at most 0.5; in that of C31A G48A C66U, 0.646; in that of A37U A43U G50A, at most 0.5.
In the case of U8A C33U G67A it was at most 0.5; in that of U2C C27G A36C, at most 0.5.
For U26C C29A C34A C61A, the yeast fitness is at most 0.5.
Next, G18A A43C C61G: at most 0.5; G9A U28C G44A G51C G58C G63A: at most 0.5.
Next, C24U G39A A40C C61G: at most 0.5.
Next, A36G A40G C55U A69C: at most 0.5.
Take U7A A21U C61G C66U A69U: the yeast fitness is at most 0.5.
On to U3C G25C G38A A42C G52A C62U, for which the yeast fitness was at most 0.5.
As for U7C A37U C46G, the yeast fitness is at most 0.5.
On to G10A G17C C30G C33G A45U G52A A70U, for which the yeast fitness was at most 0.5.
Next, U3C C24A C27U U54C U59C: at most 0.5; U3C G50C U64A: at most 0.5.
In the case of A15G G23A G48A it was 0.675; in that of G12A G41U, 0.819.
As for U3G A15G C24G A65G G68A, the yeast fitness was at most 0.5.
In the case of A14C U26A G68A it was at most 0.5.
For the variant C4U A15C C31A G63C, the yeast fitness was at most 0.5.
In the case of G23C A36U it was at most 0.5; in that of A21C C30G G68C, at most 0.5.
Next, U7A G12C C27G C31A C46A: at most 0.5.
With C5G G25C C46G U64G, the yeast fitness was at most 0.5.
In the case of C11G A20C C24U C34G A57U it was at most 0.5.
On to A14G G25C C29A G52A, for which the yeast fitness was at most 0.5.
Regarding A21U C29G G63A, the yeast fitness was 0.618.
Next, A21G C55A: 0.641.
Next, C22G A43C C46A C61G A70C: at most 0.5; C22U G41A C55G: at most 0.5; C4A C5U C11G C31U G38C G52A C66G: at most 0.5.
C4A A14U A20C U28G A57U: the yeast fitness was at most 0.5.
Regarding G6A A15G C30A, the yeast fitness was at most 0.5.
In the case of C33U A36U G41C it was at most 0.5; in that of A14C A57U C61U, at most 0.5; in that of C11U U26C U47C, 0.799.
Next, A14U A21G C46G A57U C66U: at most 0.5.
Next, U7G C22U C24U: at most 0.5; C5G A20G A37G C46G A57C: at most 0.5; G17A A57U: 0.644.
With G17A A57G, the yeast fitness stood at 0.906.
Next, C11G C34G C60A: at most 0.5; U7C C29G C31A G67C: at most 0.5.
Next, G25A G39A G50C G51C A69C: at most 0.5; A20U C30U C34G U53C A57U: at most 0.5; U47A G56A U59C C61G: at most 0.5.
In the case of C34G C49U U54C it was at most 0.5.
For C4G C31A A43C C46G C66G, the yeast fitness is at most 0.5.
Take C33U U47C G48A G58A C66U: the yeast fitness is at most 0.5.
In the case of C4G U8A U16G U19C A21C C49U G50A it was at most 0.5; in that of G44U C46G A65G, at most 0.5; in that of C4G C33U, 0.708.
Next, U13C C22G A36U: at most 0.5.
In the case of C11A U26A U54A it was at most 0.5; in that of G9A C11U A36C C49G U53G, at most 0.5.
On to U3G C5U C55U, for which the yeast fitness is at most 0.5.
Next, C4G C24U U59C: at most 0.5; G10C A57G C62G C66G: at most 0.5.
Next, C5U C46U C55A G56C: at most 0.5; C49U G51A C55G G63C: at most 0.5.
In the case of G18A G41C U54A it was at most 0.5; in that of U8C C30G C31G U54C A65C, at most 0.5.
On to C5U C24U U35C G38C C62U A69G, for which the yeast fitness is at most 0.5.
Next, G6C A14G C30G C66U: at most 0.5; U8G G17A U28A: at most 0.5.
Next, A14U A15C A40G G56C: at most 0.5.
In the case of U2G C5A U32C A36U G38A G50A it was at most 0.5.
With C4A C27G C46A U47A, the yeast fitness is at most 0.5.
Next, G18C G48A C66U: 0.545.
In the case of G41A A42G A57G it was at most 0.5; in that of G6A C11A C31U, at most 0.5.
For C5G C24U C27U U32C, the yeast fitness is at most 0.5.
In the case of A20U A40C C46U C55G A70U it was at most 0.5; in that of U3A G10C A36U A40C A57C, at most 0.5; in that of C30G C46U A65C, at most 0.5.
Consider C22A C30U A37C A43U, for which the yeast fitness is at most 0.5.
In the case of A42G A43U it was 1.03; in that of C5G U13A C22G C29G A40U C46U A57C, at most 0.5; in that of C30A G44A G67C, at most 0.5.
Next, U3A G9A U19A G44C G68C: at most 0.5; G10C U16A A65G: at most 0.5.
On to C4G G17A G50A C55U G67C, for which the yeast fitness was at most 0.5.
In the case of A15U C22G C31U U32C A57C U64A G68A it was at most 0.5; in that of G9C C31A C49G A57U, at most 0.5.
In the case of C22A C27U A43G C46G it was at most 0.5; in that of C22A G41A G44C C49U, at most 0.5; in that of C4U A15C U16A C30G G38A C61U A69C, at most 0.5.
For the variant C22G A37C A45U G52A G67A, the yeast fitness was at most 0.5.
Take G9A C11G C55G G63C G67C: the yeast fitness came out at 0.578.
Next, C11U A21G C24A G52A C60A: at most 0.5.
Next, G9C U13A G25A A40C: at most 0.5.
In the case of C34U G44C U47G A65G it was at most 0.5; in that of C4U C5A A15U C34U U54C C62U, at most 0.5.
As for U8C C30G C31G U47C A65C, the yeast fitness is at most 0.5.
Next, U8C G51C U59G: at most 0.5; A20U A21C G51C U59G: at most 0.5.
On to A14C C31G C62A A65U C66U, for which the yeast fitness was determined as 0.506.
Consider A20C C31G G52A A69C, for which the yeast fitness is at most 0.5.
For the variant C24U G67C, the yeast fitness amounted to 0.698.
Consider A20G G38C C46U G63U, for which the yeast fitness is at most 0.5.
As for C11A A40G A65U, the yeast fitness was at most 0.5.
With A15G A40U A42C C49A C66A, the yeast fitness is at most 0.5.
In the case of A14G C27U C31G A43C C49G G52C U59A it was at most 0.5.
Next, U7A G10A G41U C49U: 0.615; C5U G6A C66U: 0.975; U2A U7G A45U G52A U64C A69U: at most 0.5.
Next, C11G A15G G67C: at most 0.5; G10A C27G A37U U54C C62A G68C: at most 0.5; A36C C49U C55U C60U: at most 0.5.
Consider A14U C27G, for which the yeast fitness was determined as 0.611.
Next, C33A A37U C62A: 0.503.
In the case of C4U A21G C22U A65C it was at most 0.5.
On to C31G G56C C61G, for which the yeast fitness was at most 0.5.
Turning to G9C A20C C49U G51A A65U, the yeast fitness was at most 0.5.
With G25A A42C U59G G67U, the yeast fitness is at most 0.5.
In the case of C29A U32C C33U A37G U59A U64C C66U it was at most 0.5; in that of A21G G67U A70U, 0.607; in that of G6A C24G C31U A57C, at most 0.5.
Take G10C U16A A20G A37G C46G U59C C60A: the yeast fitness was at most 0.5.

The values above are taken from the RNAGym collection of RNA variant scans (doi:10.1126/science.aae0568).
